PubChem BioAssay AID1053208, Peter MacCallum Cancer Centre | 2014

Screen: 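Find knock-downs that sensitise mouse osteosarcoma cells to doxorubicin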 (primary screen)
System: mouse osteosarcoma cells, early-passage culture from an engineered mouse model of fibroblastic bone tumour
Reagent: siRNA pool against mouse genes, 40 nM
Timing: about 120 h (48 h before drug, then 72 h with drug)
Challenge: doxorubicin 100 nM for 72 h, roughly 30-40% inhibitory dose
Measurement: 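Viability read as ATP luminescence after 72 h of 100 nM doxorubicin or none, duplicate wells averaged, scaled to non-targeting siRNA, then expressed as robust z-scores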
Scale: viability z-score with doxorubicin and doxorubicin viability vs non-targeting: higher = more viable cells under doxorubicin; viability z-score without drug: higher = more viable cells with knock-down alone; z-score of drug to no-drug ratio: higher = less drug sensitisation by knock-down
Active means: 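Called active if knock-down leaves viability unchanged without drug (z within -2 to 2) but lowers it with doxorubicin (z at or under -2)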
The deposit covers about 17,000 reagents; this is a part drawn at random. Over the whole deposit, 788 (4.7%) got an active call. 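Calls rest on z-score classes alone; an extra cut-off of viability at most 70% of control was not applied to them.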 Unmarked entries are inactive. Reagent sequences are not shown.

| gene | combined z-score class | viability z-score with doxorubicin | viability z-score without drug | z-score of drug to no-drug ratio | doxorubicin viability vs non-targeting |
| --- | --- | --- | --- | --- | --- |
| Chst9 | no change with or without drug | 0.9 | 1.52 | 0 | 1.02 |
| Nacc1 | no change with or without drug | 0.67 | 1.18 | 0 | 1 |
| Aldh1l1 | no change with or without drug | 0 | 1.18 | -0.67 | 0.94 |
| Epcip | low cell count without drug only | 0 | -2.19 | 1.91 | 0.94 |
| Tbc1d2 | no change with or without drug | -1.8 | -0.67 | -1.35 | 0.78 |
| Ttc17 | low cell count without drug only | -1.8 | -2.53 | 0 | 0.78 |
| Spa17 | high cell count without drug only | 1.46 | 2.53 | -0.11 | 1.07 |
| Zfp287 | no change with or without drug | 0.45 | 0.17 | 0.45 | 0.98 |
| Otor | no change with or without drug | 0 | 0.17 | 0 | 0.94 |
| Idh1 | no change with or without drug | -1.35 | -0.51 | -1.01 | 0.82 |
| Nadsyn1 | no change with or without drug | -1.46 | -0.34 | -1.24 | 0.81 |
| Ptgr2 | no change with or without drug | -1.12 | 1.18 | -1.8 | 0.84 |
| Hnrnpm | no change with or without drug | 1.35 | 0.34 | 1.24 | 1.06 |
| Hspa8 | low cell count with and without drug | -5.4 | -5.06 | -3.04 | 0.46 |
| Tbc1d10a | high cell count with and without drug | 2.36 | 2.02 | 1.01 | 1.15 |
| Dnase1l1 | no change with or without drug | -1.12 | -0.17 | -1.01 | 0.84 |
| Agbl5 | no change with or without drug | -0.45 | 0.17 | -0.45 | 0.9 |
| Tpbpa | no change with or without drug | 0.11 | -1.18 | 1.12 | 0.95 |

A few values from above:
Otor, combined z-score class → no change with or without drug
Value of Nadsyn1 under “doxorubicin viability vs non-targeting”: 0.81
Tpbpa, doxorubicin viability vs non-targeting = 0.95

The listing continues.
| gene | combined z-score class | viability z-score with doxorubicin | viability z-score without drug | z-score of drug to no-drug ratio | doxorubicin viability vs non-targeting |
| --- | --- | --- | --- | --- | --- |
| Dusp7 | low cell count without drug only | 0 | -2.19 | 1.91 | 0.94 |
| Bmp1 | no change with or without drug | -1.12 | 0.17 | -1.12 | 0.84 |
| Pex7 | no change with or without drug | 1.8 | 1.18 | 1.12 | 1.1 |
| Trim30b | no change with or without drug | -0.45 | -0.51 | 0 | 0.9 |
| B130040O20Rik | no change with or without drug | -1.57 | -0.34 | -1.35 | 0.8 |
| Or5w13 | no change with or without drug | 0 | -0.51 | 0.45 | 0.94 |
| Plxna1 | low cell count without drug only | -0.45 | -2.36 | 1.46 | 0.9 |
| Gipc3 | no change with or without drug | 1.46 | 1.18 | 0.79 | 1.07 |
| Tlm | no change with or without drug | 1.12 | -0.51 | 1.69 | 1.04 |
| Pramel32 | no change with or without drug | 1.12 | 1.35 | 0.34 | 1.04 |
| Xrcc3 | no change with or without drug | 0 | 0.67 | -0.34 | 0.94 |
| Npc1 | no change with or without drug | 0.9 | -0.17 | 1.24 | 1.02 |
| Siglecl2 | no change with or without drug | -0.56 | 1.52 | -1.35 | 0.89 |
| Or4k49 | no change with or without drug | -1.57 | 0.17 | -1.69 | 0.8 |
| Rgp1 | no change with or without drug | -1.91 | 1.18 | -2.59 | 0.77 |
| Numb | no change with or without drug | 0 | 0 | 0.11 | 0.94 |
| Or7g34 | no change with or without drug | 0 | 0.17 | 0 | 0.94 |
| Nrros | no change with or without drug | -0.67 | 1.52 | -1.46 | 0.88 |
| Zfp385c | no change with or without drug | 0.34 | 1.85 | -0.67 | 0.97 |
| Clec2i | no change with or without drug | 1.8 | 1.52 | 0.9 | 1.1 |
| Nme5 | no change with or without drug | -0.34 | 0.67 | -0.67 | 0.91 |
| Tgds | no change with or without drug | 1.91 | 0.51 | 1.69 | 1.11 |
| Scn1b | no change with or without drug | 0.79 | -0.17 | 1.01 | 1.01 |
| Gdpd3 | no change with or without drug | 0.34 | 0.51 | 0.11 | 0.97 |
| Ercc1 | no change with or without drug | -0.45 | 0 | -0.34 | 0.9 |
| Socs1 | high cell count with and without drug | 2.25 | 2.19 | 0.9 | 1.14 |
| Pdia2 | no change with or without drug | 0.22 | -0.17 | 0.45 | 0.96 |
| Vmn1r73 | no change with or without drug | -0.45 | 0 | -0.34 | 0.9 |
| Mrgpra6 | no change with or without drug | 0 | 0 | 0.11 | 0.94 |
| Timm10 | no change with or without drug | -1.35 | 0.84 | -1.8 | 0.82 |
| Lce1f | no change with or without drug | -0.67 | 0.34 | -0.79 | 0.88 |
| Pnliprp1 | no change with or without drug | 0.9 | 0.17 | 0.9 | 1.02 |
